The other results are listed elsewhere or left out.
Tests used:
Assay in all cases: glycan array binding signal (z-score within array); higher = stronger binding
Conditions in all cases: glycan notation: IUPAC condensed, linker removed
Neu5Ac(a2-8)Neu5Ac = molecular target: Neu5Ac(a2-8)Neu5Ac
How it was run: (§1)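 Arrays were curated from the Consortium for Functional Glycomics database, 3228 in total, and kept only where the protein sequence was available. Binding is expressed as a within-array Z-score. This score was averaged across arrays of the same protein sequence at different concentrations or buffers and across linkers, and negative values can be read as non-binding.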

[1] = molecular target: Neu5Ac(a2-8)Neu5Ac(a2-3)Gal(b1-3)GalNAc(b1-4)[Neu5Ac(a2-3)]Gal(b1-4)Glc
How it was run: as §1

[2] = molecular target: Neu5Ac(a2-8)Neu5Ac(a2-3)Gal(b1-3)GalNAc(b1-4)[Neu5Ac(a2-8)Neu5Ac(a2-3)]Gal(b1-4)Glc
How it was run: as §1

[3] = molecular target: Neu5Ac(a2-8)Neu5Ac(a2-3)Gal(b1-4)Glc
How it was run: as §1

[4] = molecular target: Neu5Ac(a2-8)Neu5Ac(a2-3)Gal(b1-4)GlcNAc
How it was run: as §1

[5] = molecular target: Neu5Ac(a2-8)Neu5Ac(a2-3)[Gal(b1-3)GalNAc(b1-4)]Gal(b1-4)Glc
How it was run: as §1

[6] = molecular target: Neu5Ac(a2-8)Neu5Ac(a2-3)[GalNAc(b1-4)]Gal(b1-4)Glc
How it was run: as §1

[7] = molecular target: Neu5Ac(a2-8)Neu5Ac(a2-8)Neu5Ac
How it was run: as §1

[8] = molecular target: Neu5Ac(a2-8)Neu5Ac(a2-8)Neu5Ac(a2-3)Gal(b1-4)Glc
How it was run: as §1

[9] = molecular target: Neu5Ac(a2-8)Neu5Ac(a2-8)Neu5Ac(a2-3)[Gal(b1-3)GalNAc(b1-4)]Gal(b1-4)Glc
How it was run: as §1

[10] = molecular target: Neu5Ac(a2-8)Neu5Ac(a2-8)Neu5Ac(a2-3)[GalNAc(b1-4)]Gal(b1-4)Glc
How it was run: as §1

[11] = molecular target: Neu5Ac(a2-8)Neu5Ac(a2-8)Neu5Ac(a2-8)Neu5Ac(a2-3)[GalNAc(b1-4)]Gal(b1-4)Glc
How it was run: as §1

[12] = molecular target: Neu5Ac(a2-8)Neu5Gc(a2-3)Gal(b1-4)GlcNAc
How it was run: as §1

[13] = molecular target: Neu5Ac(b2-6)Gal(b1-4)GlcNAc
How it was run: as §1

Neu5Ac(b2-6)GalNAc = molecular target: Neu5Ac(b2-6)GalNAc
How it was run: as §1

[14] = molecular target: Neu5Ac9Ac(a2-3)Gal(b1-3)GlcNAc
How it was run: as §1

[15] = molecular target: Neu5Ac9Ac(a2-3)Gal(b1-4)GlcNAc
How it was run: as §1

[16] = molecular target: Neu5Ac9Ac(a2-6)Gal(b1-4)GlcNAc
How it was run: as §1

[17] = molecular target: Neu5Gc(a2-3)Gal(b1-3)GlcNAc
How it was run: as §1

[18] = molecular target: Neu5Gc(a2-3)Gal(b1-3)[Fuc(a1-4)]GlcNAc
How it was run: as §1

Neu5Gc(a2-3)Gal(b1-4)Glc = molecular target: Neu5Gc(a2-3)Gal(b1-4)Glc
How it was run: as §1

[19] = molecular target: Neu5Gc(a2-3)Gal(b1-4)GlcNAc
How it was run: as §1

[20] = molecular target: Neu5Gc(a2-3)Gal(b1-4)GlcNAc(b1-3)Gal(b1-4)GlcNAc(b1-2)Man(a1-3)[Neu5Gc(a2-3)Gal(b1-4)GlcNAc(b1-3)Gal(b1-4)GlcNAc(b1-2)Man(a1-6)]Man(b1-4)GlcNAc(b1-4)GlcNAc
How it was run: as §1

[21] = molecular target: Neu5Gc(a2-3)Gal(b1-4)[Fuc(a1-3)]GlcNAc
How it was run: as §1

[22] = molecular target: Neu5Gc(a2-6)Gal(b1-4)GlcNAc
How it was run: as §1

Neu5Gc(a2-6)GalNAc = molecular target: Neu5Gc(a2-6)GalNAc
How it was run: as §1

[23] = molecular target: Neu5Gc(a2-8)Neu5Ac(a2-3)Gal(b1-4)GlcNAc
How it was run: as §1

[24] = molecular target: Neu5Gc(a2-8)Neu5Gc(a2-3)Gal(b1-4)GlcNAc
How it was run: as §1

[25] = molecular target: Neu5Gc(a2-8)Neu5Gc(a2-3)Gal(b1-4)GlcNAc(b1-3)Gal(b1-4)GlcNAc
How it was run: as §1

[26] = molecular target: Neu5Gc(a2-8)Neu5Gc(a2-6)Gal(b1-4)GlcNAc
How it was run: as §1

[27] = molecular target: Neu5Gc(b2-6)Gal(b1-4)GlcNAc
How it was run: as §1

B1: Mincle (Bos taurus) (protein)
chain: MNSSTSPASQTERRCFSFQLFSWAIAGTSILLLSACFITRCVVTYSIFQLCDEKKFQPPGDSMELSCYNDGSGSVKNCCPLKWFHFQSSCYLFSPDTMSWRASLKNCSSMGAHLVVINTQEEQEFLYYTKPRKKEFYIGLTDQVTEGQWQWVDGTPFTKSLSFWDAGEPNNLVIVEDCATIRDSSNPRQNWNDVPCFFNMFRVCEMPERKI
Neu5Ac(a2-8)Neu5Ac
  glycan array binding signal (z-score): -0.837
[1]
  glycan array binding signal (z-score): -0.132
[2]
  glycan array binding signal (z-score): -0.528
[3]
  glycan array binding signal (z-score): -1.12
[4]
  glycan array binding signal (z-score): -1.14
[5]
  glycan array binding signal (z-score): -0.197
[6]
  glycan array binding signal (z-score): -0.123
[7]
  glycan array binding signal (z-score): 0.16
[8]
  glycan array binding signal (z-score): 0.334
[9]
  glycan array binding signal (z-score): 1.24
[10]
  glycan array binding signal (z-score): 0.821
[11]
  glycan array binding signal (z-score): -0.204
[12]
  glycan array binding signal (z-score): -1.18
[13]
  glycan array binding signal (z-score): -0.27
Neu5Ac(b2-6)GalNAc
  glycan array binding signal (z-score): -0.564
[14]
  glycan array binding signal (z-score): -1.51
[15]
  glycan array binding signal (z-score): 1.02
[16]
  glycan array binding signal (z-score): -0.265
[17]
  glycan array binding signal (z-score): -0.503
[18]
  glycan array binding signal (z-score): -0.349
Neu5Gc(a2-3)Gal(b1-4)Glc
  glycan array binding signal (z-score): -0.805
[19]
  glycan array binding signal (z-score): -0.701
[20]
  glycan array binding signal (z-score): 0.059
[21]
  glycan array binding signal (z-score): -0.793
[22]
  glycan array binding signal (z-score): -0.127
Neu5Gc(a2-6)GalNAc
  glycan array binding signal (z-score): -0.683
[23]
  glycan array binding signal (z-score): -0.304
[24]
  glycan array binding signal (z-score): -0.578
[25]
  glycan array binding signal (z-score): -0.551
[26]
  glycan array binding signal (z-score): 1.25
[27]
  glycan array binding signal (z-score): -0.507
